Measured values reported in ChEMBL document CHEMBL1821705 (J Med Chem, 2011).

Test system: KARPAS-299
Assay: cells
Conditions: Homo sapiens, KARPAS-299, 96 h

Q: With `C#Cc1cc2c(cc1N1CCN(C3COC3)CC1)C(C)(C)c1[nH]c3cc(C#N)ccc3c1C2=O` as the compound, how does the IC50 read?
A: The IC50 was 4.2 nM.
